The campaign covered roughly 340,000 compounds. About 6,200 (1.8%) were called active. The inconclusive results got no clear call from the source; some entries with a clear call stand among them for comparison. Calls follow the shape of the dose curve; as a rule, active = well fitted activation curve with a large enough effect; inconclusive = small, poorly fitted or top-dose-only effect; inactive = no such curve, though single readings can be large or run the other way. Potencies beside an inconclusive call are fits to weak or partial responses and may not hold up.
Experiment: A quantitative high throughput screen for small molecules that induce DNA re-replication in SW480 colon adenocarcinoma cells. Also: nearly all actives have a fitted effect of over 55% in size.
Settings: Hoechst DNA content imaging, 48 h; series mostly up to 46.1 µM
Procedure, shortened: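 250 cells/well; 23 nL cpd via pin tool; 48 hr, 37 C, 5% CO2; Hoechst 40 min; imager read of total nuclear intensity, ex 405/em 500-530 nm.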
Potency is read from the fitted curve at half-maximal effect.

Q: Which Potency does the source give for `CC(=O)c1cccc(S(=O)(=O)N2CCN(c3nc4cc(C)cc(C)c4cc3C#N)CC2)c1` here?
A: The Potency was inconclusive: 18.4 µM [activator, single point].

Q: For `Nc1ccc(O)cc1C(=O)OCC(=O)C12CC3CC(CC(C3)C1)C2`, which Potency is on record?
A: Its Potency is inconclusive: 25.9 µM [activator, partial curve, poor fit].

Q: With `CCCCCCCCN1[C@@H](CC(=O)OCC)c2cc(C(F)(F)F)ccc2S1(=O)=O` as the compound, how does the Potency read?
A: The Potency was “inactive”.

Q: For `COCCCN1C(=O)c2[nH]nc(-c3ccccc3O)c2C1c1ccc(Cl)cc1` (stereo not drawn), which Potency is on record?
A: The Potency was inconclusive: 9.2 µM [activator, single point].

Q: With `COc1cc(/C=N/Nc2snc(SC)c2C#N)ccc1O` as the compound, how does the Potency read?
A: The Potency was inconclusive: 2.06 µM [activator, partial curve, poor fit].

Q: Which Potency does the source give for `COc1cccc(C2=Nn3c(nnc3-c3ccccc3O)SC2)c1` here?
A: Its Potency is “inactive”.

Q: Which Potency does the source give for `COc1ccc(C(=O)NC(=S)N2CCN(c3ccccc3OC)CC2)cc1` here?
A: Its Potency is inconclusive: 29.1 µM [activator, single point].

Q: Which Potency does the source give for `Oc1c(CN2CCN(c3ccc(F)cc3)CC2)cc(Cl)c2cccnc12` here?
A: Its Potency is inconclusive: 2.91 µM [activator, partial curve, poor fit].

Q: Which Potency does the source give for `CCC1CCCCN1S(=O)(=O)c1ccc(NC(=O)c2cccs2)cc1` (stereo not drawn) here?
A: Its Potency is “inactive”.

Q: For `CC(C)(C)OC(=O)NCc1ccc(CNC(=O)c2nc[nH]c2C(=O)NCc2ccc(CNC(=O)OC(C)(C)C)cc2)cc1`, which Potency is on record?
A: Its Potency is “inactive”.

Q: Which Potency does the source give for `O=C(Nc1ccc2c(c1)N(Cc1ccccc1)C(=O)c1ccccc1S2)NC1CC1` here?
A: The Potency was inconclusive: 20.6 µM [activator, single point].

Q: For `Cn1c(N2CCN(C(=O)Nc3ccc(C(F)(F)F)cc3)CC2)nc2ccccc21`, which Potency is on record?
A: Its Potency is inconclusive: 23.1 µM [activator, single point].

Q: Which Potency does the source give for `COc1cc(/C=C2\SC(=S)N(CCC(=O)Nc3cccc(O)c3)C2=O)cc(OC)c1OC` here?
A: Its Potency is “inactive”.

Q: For `CC(NC(=O)Cn1ccsc1=N)C12CC3CC(CC(C3)C1)C2` (stereo not drawn), which Potency is on record?
A: Its Potency is inconclusive: 29.1 µM [activator, single point].

Q: For `COc1ccc(/C=C2\SC(=S)N(CCC(=O)N(CCO)Cc3ccccc3)C2=O)cc1OC`, which Potency is on record?
A: Its Potency is inconclusive: 20.6 µM [activator, single point].

Q: Which Potency does the source give for `COc1cc(/C=C2/CCC/C(=C\c3cc(O)c(OC)c(Cl)c3)C2=O)cc(Cl)c1O` here?
A: The Potency was active: 6.51 µM.

Q: For `COc1ccc(/C=C/CN2CCN(Cc3ccccc3)C(CCO)C2)cc1` (stereo not drawn), which Potency is on record?
A: The Potency was inconclusive: 18.4 µM [activator, single point].

Q: With `COC(=O)N/N=C/c1ccc([N+](=O)[O-])s1` as the compound, how does the Potency read?
A: Its Potency is inconclusive: 14.6 µM [activator, partial curve].

Reference: PubChem BioAssay AID624297 (National Center for Advancing Translational Sciences (NCATS), 2012)
